Reference: PubChem BioAssay AID504804 (Drosophila RNAi Screening Center, 2011)
Screen: 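Fly genes whose loss lessens doxorubicin-driven cell death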 (primary screen). Cell system: Drosophila Kc cells. Reagent: long dsRNA against Drosophila genes, 0.5 µg dsRNA per well. Timing: 96 h (48 h knock-down, then 48 h drug). Challenge: doxorubicin 5 µg/ml for 48 h, added 48 h after dsRNA. Detection: 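Viability measured as cellular ATP by luminescence after 48 h knock-down then 48 h doxorubicin at 5 µg/ml; unnormalised plate counts for each replicate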. Reading the numbers: raw ATP luminescence: higher = more viable cells, protection from doxorubicin. Hit rule: 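z-score of 2 or more over plate mean in both duplicates, retained only when retests and separate dsRNAs confirm the protection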.
The screen tested about 19,000 reagents; this is an unselected part of those that have a named target and a result. Of all reagents, 47 (0.25%) were called active. 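Signals are raw, not normalised; exact z-scores behind calls not deposited; actives needed confirmation, so some wells reaching 2 SD are inactive.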 The numbers tell different reagents against one gene apart. Names joined by + are all predicted targets of the reagent.

target,reagent no.,"raw ATP luminescence, replicate 1","raw ATP luminescence, replicate 2",call
CG2993,1,57220,59437,inactive
CG2993,2,38767,35500,inactive
EloB,1,68570,67870,inactive
Sap47,1,54007,63890,inactive
CG7565,1,54457,51610,inactive
MstProx,1,70163,47823,inactive
MstProx,2,68387,48113,inactive
fs(1)Yb,1,59140,55300,inactive
CG32655,1,1.55e5,1.78e5,inactive
CG13996,1,33243,22620,inactive
CG13247,1,77643,65080,inactive
CG8191 + CG12379,1,2.97e5,3.82e5,inactive
Rrp1,1,34087,24823,inactive
CG17470,1,87937,63503,inactive
CG42709,1,42233,36367,inactive
Jhbp11,1,59340,37050,inactive
Tbc1d22,1,44230,55457,inactive
Fs,1,80143,81530,inactive
ZnT35C,1,61540,73160,inactive
CG4393,1,86360,69770,inactive
CG31639,1,2.56e5,2.64e5,inactive
CG15330,1,30330,35030,inactive
CG7168,1,35853,56710,inactive
PIG-L,1,40000,37080,inactive
ACXE,1,72123,78127,inactive
Usp32,1,56717,68910,inactive
CG14451,1,57700,48747,inactive
CG34370,1,73547,62793,inactive
CG34370,2,60460,49883,inactive
CG34370,3,49720,53047,inactive
CG34370,4,40470,44473,inactive
Osi18,1,74557,50233,inactive
esc,1,96387,75830,inactive
Prp38,1,47743,50243,inactive
CG6048,1,37880,51280,inactive
CG3544,1,1.01e5,70367,inactive
Scgbeta,1,58757,41843,inactive
CG13705,1,83663,85100,inactive
CG8031,1,59870,21263,inactive
CG15602,1,3.29e5,2.81e5,inactive
CG9698,1,57010,53030,inactive
mRpL4,1,74977,60363,inactive
RpL10Ab,1,58150,59403,inactive
CG42582 (retired record),1,2.15e5,2.31e5,inactive
CG5916,1,41823,64697,inactive
FASN1,1,1.08e5,67293,inactive
Daao2,1,1.06e5,76197,inactive
nonA,1,2.55e5,2.35e5,inactive
Der-2,1,90980,75360,inactive
Jon74E,1,40780,36110,inactive
CG10465,1,53753,61100,inactive
l(2)k09022,1,78870,68203,inactive
LanB1,1,1.14e5,57793,inactive
TwdlP,1,33490,50870,inactive
CG32694,1,3.37e5,3.46e5,inactive
CG32694,2,3.82e5,3.39e5,inactive
CG5681,1,65263,75550,inactive
RpL37-2,1,45450,48710,inactive
CG7691,1,51780,50420,inactive
CG30403,1,1.53e5,1.81e5,inactive
CngB,1,51557,49830,inactive
CG11470,1,54970,52120,inactive
Or82a,1,52293,74527,inactive
amd,1,60413,57127,inactive
amd,2,59170,60623,inactive
kst,1,35913,35567,inactive
Polr1E,1,64510,73050,inactive
Polr1E,2,47537,40737,inactive
CG10749,1,82100,90680,inactive
CG14423,1,57370,47720,inactive
CAH14,1,67513,63637,inactive
CG31816,1,2.80e5,2.42e5,inactive
CG32576,1,2.53e5,2.81e5,inactive
CG7191,1,33660,35233,inactive
Cyt-b5-r,1,74620,84967,inactive
tou,1,57607,64403,inactive
iav,1,33750,44810,inactive
Or85b,1,60650,60393,inactive
CG9380,1,30613,61843,inactive
CG11362,1,45213,52107,inactive
DUBAI,1,64843,59250,inactive
Nnp-1,1,77530,24060,inactive
CG18128,1,51993,75600,inactive
CG33298,1,50763,71357,inactive
CG33298,2,88273,77050,inactive
